# Reference: patent US12378320B2, “Methods for treating pancreatitis” (Cold Spring Harbor Laboratory, priority 2018, dated 2025)
# B1: P31254 (protein, UniProt P31254 1-1058, looked up)
# chain: MSSSVLSKKRKVSGPDSSLDSSWSPTYSVMFGVPPGPTNEMSKNKEMDIDESLYSRQLYVLGHEAMKHLQASSVLISGLQGLGVEIAKNIILGGVKAVTLHDQGIAQWADLSSQFCLREEDIGKNRAEISQPRLAELNSYVPVFAYTGPLIEEFLSGFQVVVLTNTPLEYQLQVGEFCHSHGIKLVVADTRGLVGQLFCDFGEEMILTDSNGEQPLSAMVSMITKENPGIVTCLEDSRHGFESGDFISFTEVQGMSELNGIGPIEIKVLGPYTFSICDTSSFSEYIRGGIVSQVKVPRKINFKPLLASLAEPEFVVTDFAKCCHPAQLHIGFQALHQFCTQHSRPPRPHNEEDAEELVTLAQSVNAQALPAVQQDCLDIDLIRKLAYVAAGDLAPMNAFFGGLAAQEVMKACSGKFMPIRQWLYFDALECLPEHRVAFMEDKCLPHQNRYDGQVAVFGSDLQEKLGKQKYFLVGAGAIGCELLKNFAMIGLGCGEDGEITVTDMDTIEKSNLNRQFLFRPWDITKLKSETAAAAVRDINPHIRIFSHQNRVGPETEHVYDDDFFQKLDGVANALDNVDARLYVDRRCVYYRKPLLESGTLGTKGNVQVVVPFLTESYSSSQDPPEKSIPICTLKNFPNAIEHTVQWARDEFEGLFKQSAENVNQYLTDPKFMERTLQLAGTQPLEVLEAIHCSLVLQRPQTWADCVTWAYQHWHTQYSHNIQQLLHNFPPAQLTSSGALFWSGPKRCPHPLTFDINNPLHLDYVMAAANLFAQTYGLGGSQDCAVVAKLLQSLPVPKFAPKSGIRIHVSEQELQSTSATTIDDSHLEELKTALPTPDKLLGFKMYPIDFEKDDDSNFHMDFIVAASNLRAENYGISPADRHKSKLIAGKIIPAIATTTSAIVGLVCLELYKVVQGHQQLESYKNSFINLALPLFSFSAPLAPECHQYYDQEWTLWDRFDVQGLQPSGEEMTLKQFLDYFKTEHKLEVIMLSQGVSMLYSVFMPASKLKERLDQPMTEIVSCVSKQKLGHHVKSLVFELCCNSDSGDDIEVPYVRYIIR
# modifications: full-length
# B2: P24549 (protein, UniProt P24549 1-501, looked up)
# chain: MSSPAQPAVPAPLADLKIQHTKIFINNEWHNSVSGKKFPVLNPATEEVICHVEEGDKADVDKAVKAARQAFQIGSPWRTMDASERGRLLNKLADLMERDRLLLATMEALNGGKVFANAYLSDLGGCIKALKYCAGWADKIHGQTIPSDGDIFTYTRREPIGVCGQIIPWNFPMLMFIWKIGPALSCGNTVVVKPAEQTPLTALHLASLIKEAGFPPGVVNIVPGYGPTAGAAISSHMDVDKVAFTGSTQVGKLIKEAAGKSNLKRVTLELGGKSPCIVFADADLDIAVEFAHHGVFYHQGQCCVAASRIFVEESVYDEFVKRSVERAKKYVLGNPLTPGINQGPQIDKEQHDKILDLIESGKKEGAKLECGGGRWGNKGFFVQPTVFSNVTDEMRIAKEEIFGPVQQIMKFKSVDDVIKRANNTTYGLAAGLFTKDLDKAITVSSALQAGVVWVNCYMMLSAQCPFGGFKMSGNGRELGEHGLYEYTELKTVAMKISQKNS
# modifications: full-length
# B3: P07759 (protein, UniProt P07759 1-418, looked up)
# chain: MAFIVAMGMILMAGICPAVLCFPDGTKEMDIVFHEHQDNGTQDDSLTLASVNTDFAFSLYKKLALKNPDTNIVFSPLSISAALALVSLGAKGKTMEEILEGLKFNLTETPEADIHQGFGNLLQSLSQPEDQDQINIGNAMFIEKDLQILAEFHEKTRALYQTEAFTADFQQPTEAKNLINDYVSNQTQGMIKELISELDERTLMVLVNYIYFKGKWKISFDPQDTFESEFYLDEKRSVKVPMMKMKLLTTRHFRDEELSCSVLELKYTGNASALLILPDQGRMQQVEASLQPETLRKWRKTLFPSQIEELNLPKFSIASNYRLEEDVLPEMGIKEVFTEQADLSGITETKKLSVSQVVHKAVLDVAETGTEAAAATGVIGGIRKAILPAVHFNRPFLFVIYHTSAQSILFMAKVNNPK
# modifications: full-length
# B4: Q8R1B4 (protein, UniProt Q8R1B4 1-911, looked up)
# chain: MSRFFTTGSDSESESSLSGEELVTKPVSGNYGKQPLLLSEDEEDTKRVVRSAKDKRFEELTNLIRTIRNAMKIRDVTKCLEEFELLGKAYGKAKSIVDKEGVPRFYIRILADLEDYLNELWEDKEGKKKMNKNNAKALSTLRQKIRKYNRDFESHITNYKQNPEQSADEDAEKNEEDSEGSSDEDEDEDGVGNTTFLKKKQESSGESRKFHKKMEDDDEDSEDSEDEEWDTSSTSSDSDSEEEEGKQTVLASKFLKKAPTTEEDKKAAEKKREDKAKKKHDRKSKRLDEEEEDNEGGEWERVRGGVPLVKEKPKMFAKGTEITHAVVIKKLNEILQVRGKKGTDRATQIELLQLLVQIAAENNLGVGVIVKIKFNIIASLYDYNPNLATYMKPEMWQMCLDCINELMDTLVAHSNIFVGENILEESENLHNFDQPLRVRGCILTLVERMDEEFTKIMQNTDPHSQEYVEHLKDEAQVCAIIERVQRYLEEKGTTEEICQIYLRRILHTYYKFDYKAHQRQLTPPEGSSKSEQDQAENEGEDSAVLMERLCKYIYAKDRTDRIRTCAILCHIYHHALHSRWYQARDLMLMSHLQDNIQHADPPVQILYNRTMVQLGICAFRQGLTKDAHNALLDIQSSGRAKELLGQGLLLRSLQERNQEQEKVERRRQVPFHLHINLELLECVYLVSAMLLEIPYMAAHESDARRRMISKQFHHQLRVGERQPLLGPPESMREHVVAASKAMKMGDWKTCHSFIINEKMNGKVWDLFPEADKVRTMLVRKIQEESLRTYLFTYSSVYDSISMETLSDMFELDLPTVHSIISKMIINEELMASLDQPTQTVVMHRTEPTAQQNLALQLAEKLGSLVENNERVFDHKQGTYGGYFRDQKDGYRKNEGYMRRGGYRQQQSQTAY
# modifications: full-length
# B5: Q9DCH4 (protein, UniProt Q9DCH4 1-361, looked up)
# chain: MASPAVPANVPPATAAAAPAPVVTAAPASAPTPSTPAPTPAATPAASPAPVSSDPAVAAPAAPGQTPASAPAPAQTPAPSQPGPALPGPFPGGRVVRLHPVILASIVDSYERRNEGAARVIGTLLGTVDKHSVEVTNCFSVPHNESEDEVAVDMEFAKNMYELHKKVSPNELILGWYATGHDITEHSVLIHEYYSREAPNPIHLTVDTGLQHGRMSIKAYVSTLMGVPGRTMGVMFTPLTVKYAYYDTERIGVDLIMKTCFSPNRVIGLSSDLQQVGGASARIQDALSTVLQYAEDVLSGKVSADNTVGRFLMSLVNQVPKIVPDDFETMLNSNINDLLMVTYLANLTQSQIALNEKLVNL
# modifications: full-length
# B6: Q8VDM4 (protein, UniProt Q8VDM4 1-908, looked up)
# chain: MEEGGRDKTPVQSQQPSATTPSGADEKSSGKERRDAGEKDKEQELSEEDKQLQDELEMLVERLGEKDTSLYRPALEELRRQIRSSTTSMTSVPKPLKFLRPHYGKLKEIYENMAPGENKCFAADIISVLAMTMSGERECLKYRLVGSQEELASWGHEYVRHLAGEVAKEWQELDDAEKAQREPLLTLVKEIVPYNMAHNAEHEACDLLMEIEQVDMLEKDIDENAYAKVCLYLTSCVNYVPEPENSALLRCALGVFRKFSRFPEALRLALMLNDMELVEDIFTSCKDVVVQKQMAFMLGRHGVFLELSEDVEEYEDLTEIMSNVQLNSNFLALARELDIMEPKVPDDIYKTHLENNRFGGSGSQVDSARMNLASSFVNGFVNAAFGQDKLLTDDGNKWLYKNKDHGMLSAAASLGMILLWDVDGGLTQIDKYLYSSEDYIKSGALLACGIVNSGVRNECDPALALLSDYVLHNSNTMRLGSIFGLGLAYAGSNREDVLTLLLPVMGDSKSSMEVAGVTALACGMIAVGSCNGDVTSTILQTIMEKSETELKDTYARWLPLGLGLNHLGKGEAIEAILAALEVVSEPFRSFANTLVDVCAYAGSGNVLKVQQLLHICSEHFDSKEKEEDKDKKEKKDKDKKEAPADMGAHQGVAVLGIALIAMGEEIGAEMALRTFGHLLRYGEPTLRRAVPLALALISVSNPRLNILDTLSKFSHDADPEVSYNSIFAMGMVGSGTNNARLAAMLRQLAQYHAKDPNNLFMVRLAQGLTHLGKGTLTLCPYHSDRQLMSQVAVAGLLTVLVSFLDVRNIILGKSHYVLYGLVAAMQPRMLVTFDEELRPLPVSVRVGQAVDVVGQAGKPKTITGFQTHTTPVLLAHGERAELATEEFLPVTPILEGFVILRKNPNYDL
# modifications: full-length
# B7: Q99LF4 (protein, UniProt Q99LF4 1-505, looked up)
# chain: MSRNYNDELQFLDKINKNCWRIKKGFVPNMQVEGVFYVNDALEKLMFEELRNACRGGGVGGFLPAMKQIGNVAALPGIVHRSIGLPDVHSGYGFAIGNMAAFDMNDPEAVVSPGGVGFDINCGVRLLRTNLDESDVQPVKEQLAQAMFDHIPVGVGSKGVIPMNAKDLEEALEMGVDWSLREGYAWAEDKEHCEEYGRMLQADPNKVSPRAKKRGLPQLGTLGAGNHYAEIQVVDEIFNEYAAKKMGIDHKGQVCVMIHSGSRGLGHQVATDALVAMEKAMKRDKIIVNDRQLACARIASPEGQDYLKGMAAAGNYAWVNRSSMTFLTRQAFAKVFNTTPDDLDLHVIYDVSHNIAKVEQHVVDGKERTLLVHRKGSTRAFPPHHPLIAVDYQLTGQPVLIGGTMGTCSYVLTGTEQGMTETFGTTCHGAGRALSRAKSRRNLDFQDVLDKLADMGIAIRVASPKLVMEEAPESYKNVTDVVNTCHDAGISKKAIKLRPIAVIKG
# modifications: full-length
# B8: P01675 (protein, UniProt P01675 1-107, looked up)
# chain: EIVLTQSPAITAASLGQKVTITCSASSSVSYMHWYQQKSGTSPKPWIYEISKLASGVPARFSGSGSGTSYSLTISSMEAEDAAIYYCQQWNYPLWTFGGGTKLEIKR
# modifications: full-length
# Tested on: CA19-9 modified proteins
# Experiment: CA19-9 IP/MS (iTRAQ) of organoid conditioned media after Dox treatment
# Design: species or system mouse
# Conditions: for 17 8H 5B1 / 17 8H NS19 / 17 0H NS19: A217 (genetic negative) organoids conditioned media; for 17 8H 5B1 / 17 8H NS19: after 8 hours of treatment; for 17 8H 5B1 / 20 0H 5B1: CA19-9 IP with 5B1; for 17 8H 5B1 / 17 8H NS19 / 20 0H 5B1: relative to 17 0H NS19; for 17 8H NS19 / 17 0H NS19: CA19-9 IP with NS19-9; for 17 0H NS19 / 20 0H 5B1: before treatment (0H); for 17 0H NS19: relative abundance, reference channel; for 20 0H 5B1: A220 (C;R^LSL;F) organoids conditioned media
Molecule,17 8H 5B1,17 8H NS19,17 0H NS19,20 0H 5B1
B1,3.007,0.694,1,2.462
B2,5.654,0.713,1,4.672
B3,0.945,0.955,1,0.95
B4,0.914,0.281,1,0.96
B5,3.033,0.378,1,2.683
B6,1.196,0.322,1,0.932
B7,1.032,0.711,1,0.765
B8,1.759,0.863,1,1.768
